Results on one molecule are retold here after patent US20050101595A1, “N-containing cycloalkyl-substituted amino-thiazole derivatives and pharmaceutical compositions for inhibiting cell proliferation and methods for their use” (PFIZER INC., priority 2003, published 2005).

The chains behind the UniProt entries cited, without tags or fusion partners. Residues count along the entry.
UniProt P11802, whole entry: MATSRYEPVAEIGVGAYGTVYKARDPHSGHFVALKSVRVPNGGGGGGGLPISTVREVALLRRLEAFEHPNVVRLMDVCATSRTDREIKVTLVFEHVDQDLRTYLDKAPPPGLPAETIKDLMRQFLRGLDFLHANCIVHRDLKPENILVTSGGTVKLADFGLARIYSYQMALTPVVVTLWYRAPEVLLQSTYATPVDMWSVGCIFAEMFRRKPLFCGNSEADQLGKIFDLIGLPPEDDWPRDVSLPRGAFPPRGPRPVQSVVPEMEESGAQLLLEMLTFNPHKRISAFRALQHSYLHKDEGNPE
UniProt P30281, 1-264 partner limits assumed: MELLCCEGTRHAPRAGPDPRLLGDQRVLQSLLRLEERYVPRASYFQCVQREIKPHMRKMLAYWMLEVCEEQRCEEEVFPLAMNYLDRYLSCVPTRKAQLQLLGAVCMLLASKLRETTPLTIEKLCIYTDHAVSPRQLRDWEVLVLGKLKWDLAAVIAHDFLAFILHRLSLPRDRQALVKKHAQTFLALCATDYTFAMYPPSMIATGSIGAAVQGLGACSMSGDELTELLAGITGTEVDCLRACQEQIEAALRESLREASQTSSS

In the experiment the target is human CDK4 and genetically truncated (1-264) cyclin D3 (Homo sapiens, UniProt P11802). Nature of the experiment: Inhibition of CDK4/Cyclin D Retinoblastoma Kinase Activity. The note with it: read-out: CDK4 Ki; apparent Ki, CDK4/truncated cyclin D3, Rb fragment substrate, 25 μM ATP.

Structures were worked out from names or drawings and are uncertain.

Turning to `CN(C)CCNc1ccc(S(=O)(=O)N2CCC(Nc3nc(N)c(C(=O)c4c(F)cccc4F)s3)CC2)cn1`, the Ki came out at 0.51 nM.
